Source: patent US20060205028A1, “Active-site titration of glycosyl hydrolases” (Novozymes A/S, priority 2003, published 2006)
At least one compound was matched to its structure with a doubt left.

Test system: Talaromyces emersonii glucoamylase variants
Assay: Active site titration of glucoamylase with acarbose, residual activity on pNP-Glu (A405)
Assay type: biochemical
Conditions: for A405 measured: variant Var10, one of three deep well fermentations, pNP-Glu residual activity; for A405 fitted: variant Var10

Compound: C[C@H]1O[C@H](O[C@H]2[C@H](O)[C@@H](O)[C@@H](O[C@H]3[C@H](O)[C@@H](O)C(O)O[C@@H]3CO)O[C@@H]2CO)[C@H](O)[C@@H](O)[C@@H]1N[C@H]1C=C(CO)[C@@H](O)[C@H](O)[C@H]1O (stereo partly drawn) [acarbose]
- A405 measured (acarbose 0.0625 μM): 2.06
- A405 fitted (acarbose 0.0625 μM, linear regression 0 to 1 μM): 1.91
- A405 measured (acarbose 0.125 μM): 1.80
- A405 fitted (acarbose 0.125 μM, linear regression 0 to 1 μM): 1.82
- A405 measured (acarbose 0.25 μM): 1.57
- A405 fitted (acarbose 0.25 μM, linear regression 0 to 1 μM): 1.64
- A405 measured (acarbose 0.5 μM): 1.17
- A405 fitted (acarbose 0.5 μM, linear regression 0 to 1 μM): 1.28
- A405 measured (acarbose 1 μM): 0.63
- A405 fitted (acarbose 1 μM, linear regression 0 to 1 μM): 0.56
- A405 measured (acarbose 2 μM): 0.04
- A405 fitted (acarbose 2 μM, average of 2 and 4 μM taken as background): 0.02
- A405 measured (acarbose 4 μM): 0.01
- A405 fitted (acarbose 4 μM, average of 2 and 4 μM taken as background): 0.02
- Inhibition of glucoamylase activity (highest concentration of acarbose (4.0 μM), all 32 variants, 1 hour room temperature, pH 4.5): inhibit all glucoamylase activity
